Measured values: the DeepSol protein solubility set

Test: soluble on expression in E. coli; label from the status in PepcDB or PDB records

| Sequence | soluble on expression in E. coli |
| --- | --- |
| MGHHHHHHSHMDLLRLSRLFSGPRPLGLSVLQHLDLVGSTRWTGGREGPERLRAAFCGSSSPLPLGSGNQKEMSSLCSDSSKLSTVAPQEEAEEESFGSLSGKFSSRRIFHKSTAQLYNLQLKEQGGEEEELEPRPWRGRRNTQYWYFFQCKRLIKEGKLAEALDLFERQMLKEERLQPLECNYTVLIGGCGRVGYLKKAFRLFNDMKKRDLEPSDATYTALFNVCAESPWKDSALQSALKLRQQLQARNFQLNLKTYHALLKVAAKCADLRLCLDVFKEIIQRGHAVTEETFCFLLVGCIQDKKTGFRQAMQVWRQMLSLGIKPSRHGYNLLLEAARDCGLGDPEVASRLLLTSQEENILLPPPKGRHMAGRKVQAKTVHGVSLRHVEALERQLFLEPSQKLEGPPALPEARVTSRTQPEVETTAEPGHTVALTPLAPKPTHLELEVSLLSLGTLSPAVVSFGTVATPADRLALMGGLEGFLGKMTEHGLQPDIKTLTLLAEVVEPGSAAESSLLSVLDRHRVEADVTFFNTLIRKKSKLGDLEGAKALLPILAKKGIVPNLRTFCNLAIGCHRPRDGMQLLADMKKSQVSPNIHIYSTLINAALKKLDYTYLISILKDMRQNSVPVNEVVVRQLEFAAEYPPTFDRYKGKNTYLEKIDGFRAYYKQWLKAMPAEEAPHPW | soluble |
| MGDIKNFLYAWCGKRKMTPAYEIRAVGNKNRQKFMCEVRVEGFNYAGMGNSTNKKDAQSNAARDFVNYLVRINEVKSEEVPAVGIVPPPPILSDTSDSTASAAEGLPAPMGGPLPPHLALKAEAENNSGVESSGYGSPGPTWDRGANLKDYYSRKEEQEVQATLESEEVDLNAGLHGNWTLENAKARLNQYFQKEKIQGEYKYTQVGPDHNGSFIAEMTIYIKQLGRRIFAREHGSNKKLAAQSCALSLVRQLYHLGVIEAYSG | soluble |
| MLALHQDPVKRKLIQQQFVLLLHAHKCSQREKENNEFAARNQLLPHAACTLPHCSTMKEVLIHMTNCNVGRLCHFAHCASSRQIIAHWKDCSREDCPVCKPLKGIQDTPLQFSLPDVISLIGANGNSYGSADGEVIHQIGSSAMSVGEGGHQSRTNQETETNRQNQSQQPLMDINVQLNAEELELAFAELMKNPQLFHD | not soluble |
| MQETTVKRDGASPSDAGTPATTAQGLGKLYIRTFGCQMNEYDSDKMADVLRADQGLELTDNPEDADVILFNTCSVREKAQEKVFSDLGRVQHLKKQNPNLVIGVGGCVASQEGEAIVKRAPYVDVVFGPQTLHRLPDLIKRRRAQGVSQVDISFPEIEKFDALPPPRVDGATAFVSIMEGCSKYCSFCVVPYTRGEEVSRPFDDVLLEVADLADQGVKEVTLLGQNVNAYRGAMGDSGEIADFAMLLEYVHEIPGIERIRYTTSHPKEMTQRMVDAYARLPKLVSFLHLPVQAGSDRVLAAMKRGYTALEFKSVVRRLRAARPSLTLSSDFIVGFPGETEEDFQKTMKLIEDVGFDTSFSFVYSRRPGTPAADLHDDTPQDVKLRRLQQLQALINQQAAAIAQGMIGTRQRVLVEGPSRRDPNELMGRTENNRIVNFPGVPRLIGHMVDVVVTHAHTNSLRGRVAGIERDTSGAE | soluble |
| MDLGIQGKLAVVTAGSSGLGFASALELARNGARLLLFSRNREKLEAAASRIASLVSGAQVDIVAGDIREPGDIDRLFEKARDLGGADILVYSTGGPRPGRFMELGVEDWDESYRLLARSAVWVGRRAAEQMVEKGWGRMVYIGSVTLLRPWQDLALSNIMRLPVIGVVRTLALELAPHGVTVNAVLPSLILTDRVRSLAEERARRSGITVEEALKSMASRIPMGRVGKPEELASVVAFLASEKASFITGAVIPVDGGAHI | soluble |
| MNIQSTIKAVAETISTGPIPGSRKVYQAGELFPELRVPFREVAVHPSANEPPVTIYDPSGPYSDPAIQIDIEKGLPRTREALVVARGDVEEVADPRQVKPEDNGFAQGKHLAPEFPDTGRKIYRAKPGKLVTQLEYARAGIITAEMEYVAIRENLRREQDRPCVRDGEDFGASIPDFVTPEFVRQEIARGRAIIPANINHGELEPMAIGRNFLVKINANIGNSAVLSTVADEVDKLVWATRWGADTVMDLSTGRNIHNIRDWIIRNSSVPIGTVPIYQALEKVNGVAEDLNWEVFRDTLIEQCEQGVDYFTIHAGVRLPFIPMTAKRVTGIVSRGGSIMAKWCLAHHKENFLYERFDEICEIMRAYDVSFSLGDGLRPGSTADANDEAQFSELRTLGELTKVAWKHGVQVMIEGPGHVAMHKIKANMDEQLKHCHEAPFYTLGPLTTDIAPGYDHITSAIGAAMIGWFGTAMLCYVTPKEHLGLPDRDDVKTGVITYKLAAHAADLAKGHPGAAMWDDAISRARFEFRWEDQFNLGLDPETARKFHDETLPKEAHKTAHFCSMCGPKFCSMKISQEVRDFAAGKAPNSAELGMAEMSEKFREQGSEIYLKTE | soluble |
| MANKKVTFREDVKSPAIRKLKQKLTPLKIKKGRGKIQKHIQKTLQKMKEEEESENQSPGTTVEETLTEENISTDKEETSKLENKPKKTRKTSGETIAQKKSRETVGVEVLKTSEGSSKMLGFHVSAAGGLEQAIYNARAEGCRSFAMFVRNQRTWNHKPMSEEVVENWWKAVRETNFPLDQIVPHGSYLMNAGSPEAEKLEKSRLAMLDECQRAEKLGITMYNFHPGSTVGKCEKEECMTTIAETIDFVVEKTENIILVLETMAGQGNSIGGTFEELKFIIDKVKVKSRVGVCIDTCHIFAGGYDIRTQKAYEEVMKNFGEVVGWNYLKAIHINDSKGDVGSKLDRHEHIGQGKIGKAAFELLMNDNRLDGIPMILETPEGKYPEEMMIMYNMDKR | not soluble |
| MSLAAIRTPRDRWPHHHRNEVTEIIPLDGFLDGLALYDELDFAELDDLDLGDDCVFDYEAQLLAAPELDDLDDADDLAPEWLVAPTVVLTPEVTPVSRRVGQHRKQPIGAARGRLLISAMAAGAAAAAAHTAIQQSETPRTETVLTAHASALNEGSGSNPPRGVQVIAAQPAASAAVHNAEFARGVAFAEERAEREARLQRPLYVMPTKGIFTSSFGYRWGVLHAGIDLANAIGTPIYAVSDGVVIDAGPTAGYGMWVKLLHADGTVTLYGHVNTTLVSVGERVMAGDQIATMGSRGFSTGPHLHFEVLLGGTERVDPVPWLAKRGLSVGNYTGEGHHHHHH | not soluble |
| MSLEDWTRPLGGRRALVTGAARGIGAAIAETLARDGADVLLLDVPQASKDLDALAARLGGKALPLDICASDAATQLLAALPDGIDIVVHNAGITRDKTLVNMTPEYWDAVLAVNLKAPQVLTQALYDNGALGENARITLLASVSGIAGNRGQANYAASKAGLIGLAQAWAPRLAERGGSINAIAPGFIETHMTAAMPMGLREAGRRLSSLGQGGSPQDVAEAIAWLSQPGSGSVNGQVLRVCGQALMGAEGHHHHHH | not soluble |
| CTCVPPHPQTAFCNSDLVIRAKFVGTPEVAQTTLYQRYEIKMTKMYKGFQALGDAADIRFVYTPAMESVCGYFHRSHARSEEFLIAGKLQDGLLHITTCSFVAPWNSLSLAQRRGFTKTYTVGCEECTVFPCLSIPCKLQSGTHCLWTDQLLQGSEKGFQSRHLACLPREPGLCTWQSLRSQIA | soluble |
| MTRSPGENLSVAAHRATLTDRYAAWREQGFDANRCPVRNVLDHLGSKWSTLLLIALAEKPMRFNALLRDVPDISKRMLTQTLRDLERDGLVARQVFPTKPPSVEYRLSASGESVLAPLTALVAWAEQHFPEIERARARFDSAARDGEPQVPGDSARPESPLALAPLPVRG | not soluble |
| MGSDKIHHHHHHKGHFSLDHAPVSDVDSMQAAYSVSRPSGAVLGYYTRQDVPFYHALADHYVLFDHFHQAMFGGSTGNALFLAAARTCQDPKTPREWRVPKDMSYVDLPYDQAGYLINNLPPLQGPTDEGGGFWDHVPPPAQDYYGPSARVPALLVSAWTRPGYVDHRIVDTTSILRRIETRFQLPPLNERDAAAYALTDGLDFSGKVRDPAFI | not soluble |
| MNKVDQKFQGSVSFKDVTVGFTQEEWQHLDPSQRALYRDVMLENYSNLVSVGYCAHKPEVIFRLEQGEEPWRLEEEFPSQSFPGSSWLWWFPRLSLFWMTLTVWRNPGEKSGQLIT | not soluble |
